We go through one substance from article PMC7979691.

Protein sequences, listed by entry. Tags and fused reporters are not part of them. Lines headed by an entry give the natural chain unless they say otherwise; changes in a name come on top.
UniProt I1JZ08: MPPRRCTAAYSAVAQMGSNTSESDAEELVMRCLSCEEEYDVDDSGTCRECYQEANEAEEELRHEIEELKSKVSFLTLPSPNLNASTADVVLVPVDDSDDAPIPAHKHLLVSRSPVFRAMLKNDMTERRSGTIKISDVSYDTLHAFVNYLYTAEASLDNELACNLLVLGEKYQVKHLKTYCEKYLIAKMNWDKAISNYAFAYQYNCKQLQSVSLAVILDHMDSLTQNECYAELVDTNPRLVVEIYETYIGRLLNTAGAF
UniProt A0A0R0FVG1: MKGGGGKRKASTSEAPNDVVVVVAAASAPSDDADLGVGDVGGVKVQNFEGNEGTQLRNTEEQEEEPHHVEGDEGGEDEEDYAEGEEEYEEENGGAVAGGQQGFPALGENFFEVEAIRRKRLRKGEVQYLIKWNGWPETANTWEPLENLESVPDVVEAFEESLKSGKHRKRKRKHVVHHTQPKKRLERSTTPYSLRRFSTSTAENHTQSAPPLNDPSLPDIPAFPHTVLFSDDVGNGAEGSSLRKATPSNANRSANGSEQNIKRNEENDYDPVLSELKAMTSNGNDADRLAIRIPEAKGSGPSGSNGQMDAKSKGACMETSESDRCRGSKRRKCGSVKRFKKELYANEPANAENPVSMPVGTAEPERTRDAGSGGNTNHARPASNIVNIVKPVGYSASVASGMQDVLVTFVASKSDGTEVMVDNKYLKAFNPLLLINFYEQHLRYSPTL

Results are given in words; binding and its absence hold for the method and conditions named. Binding can be weak; no strength is given.

The target of this assay is GmBTB/POZ-GST (soybean (Glycine max)) (UniProt I1JZ08). In words: pull-down; His-tagged protein incubated with immobilized GST or GST-tagged protein; bound fraction detected with anti-His antibody; both purified.

As for GmLHP1-His (from UniProt A0A0R0FVG1), the binding entry is reported as “binds”.
